Reference: PMC9932153
These are yes or no findings as the source states them, for the method shown. Binding seen in cells or lysates may run through a third protein. Here binding means that the protein was enriched with, or labelled near, the bait; the list need not be complete.

Chains of the proteins cited; added tags and fusions are not shown. Residues count along the entry.
UniProt Q9ULH1: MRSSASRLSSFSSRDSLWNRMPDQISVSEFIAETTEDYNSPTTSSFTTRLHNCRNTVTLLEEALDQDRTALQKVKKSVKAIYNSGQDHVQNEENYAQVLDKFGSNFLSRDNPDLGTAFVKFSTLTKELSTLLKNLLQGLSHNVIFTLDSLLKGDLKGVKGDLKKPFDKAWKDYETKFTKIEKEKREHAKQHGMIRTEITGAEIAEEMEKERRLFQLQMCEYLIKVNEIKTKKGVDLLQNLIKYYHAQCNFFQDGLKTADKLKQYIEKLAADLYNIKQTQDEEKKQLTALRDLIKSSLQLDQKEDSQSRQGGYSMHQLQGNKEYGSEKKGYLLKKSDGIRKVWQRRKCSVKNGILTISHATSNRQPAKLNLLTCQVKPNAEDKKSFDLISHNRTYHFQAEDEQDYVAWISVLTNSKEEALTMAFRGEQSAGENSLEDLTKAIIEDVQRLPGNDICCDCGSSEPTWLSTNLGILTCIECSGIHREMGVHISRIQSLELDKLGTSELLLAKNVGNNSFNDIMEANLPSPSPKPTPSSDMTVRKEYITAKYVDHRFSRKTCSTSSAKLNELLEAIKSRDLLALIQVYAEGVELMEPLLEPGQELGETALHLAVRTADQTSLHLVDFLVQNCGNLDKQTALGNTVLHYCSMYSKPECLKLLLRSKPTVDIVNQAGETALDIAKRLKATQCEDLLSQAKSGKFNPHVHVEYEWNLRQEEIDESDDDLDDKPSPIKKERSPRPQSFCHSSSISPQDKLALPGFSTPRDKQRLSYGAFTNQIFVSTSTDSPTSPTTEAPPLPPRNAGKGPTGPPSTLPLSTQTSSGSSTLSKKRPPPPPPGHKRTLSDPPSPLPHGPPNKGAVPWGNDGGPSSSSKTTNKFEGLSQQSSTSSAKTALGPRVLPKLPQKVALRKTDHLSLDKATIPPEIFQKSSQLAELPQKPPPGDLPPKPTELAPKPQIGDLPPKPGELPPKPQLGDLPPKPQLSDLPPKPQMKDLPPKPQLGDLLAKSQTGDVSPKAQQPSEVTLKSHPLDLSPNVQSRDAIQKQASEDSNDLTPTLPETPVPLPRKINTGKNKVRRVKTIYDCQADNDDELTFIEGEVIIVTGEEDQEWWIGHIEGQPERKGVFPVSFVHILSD
UniProt P08174, residues 35-353: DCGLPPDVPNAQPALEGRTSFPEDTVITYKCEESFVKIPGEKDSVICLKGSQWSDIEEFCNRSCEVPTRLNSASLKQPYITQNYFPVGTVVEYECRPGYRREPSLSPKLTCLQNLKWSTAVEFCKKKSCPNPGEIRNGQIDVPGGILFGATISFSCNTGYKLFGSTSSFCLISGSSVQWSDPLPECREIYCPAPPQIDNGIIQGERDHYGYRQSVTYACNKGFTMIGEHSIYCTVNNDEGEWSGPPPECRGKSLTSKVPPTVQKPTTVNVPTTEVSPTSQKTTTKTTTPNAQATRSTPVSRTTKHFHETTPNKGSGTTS
UniProt P21333: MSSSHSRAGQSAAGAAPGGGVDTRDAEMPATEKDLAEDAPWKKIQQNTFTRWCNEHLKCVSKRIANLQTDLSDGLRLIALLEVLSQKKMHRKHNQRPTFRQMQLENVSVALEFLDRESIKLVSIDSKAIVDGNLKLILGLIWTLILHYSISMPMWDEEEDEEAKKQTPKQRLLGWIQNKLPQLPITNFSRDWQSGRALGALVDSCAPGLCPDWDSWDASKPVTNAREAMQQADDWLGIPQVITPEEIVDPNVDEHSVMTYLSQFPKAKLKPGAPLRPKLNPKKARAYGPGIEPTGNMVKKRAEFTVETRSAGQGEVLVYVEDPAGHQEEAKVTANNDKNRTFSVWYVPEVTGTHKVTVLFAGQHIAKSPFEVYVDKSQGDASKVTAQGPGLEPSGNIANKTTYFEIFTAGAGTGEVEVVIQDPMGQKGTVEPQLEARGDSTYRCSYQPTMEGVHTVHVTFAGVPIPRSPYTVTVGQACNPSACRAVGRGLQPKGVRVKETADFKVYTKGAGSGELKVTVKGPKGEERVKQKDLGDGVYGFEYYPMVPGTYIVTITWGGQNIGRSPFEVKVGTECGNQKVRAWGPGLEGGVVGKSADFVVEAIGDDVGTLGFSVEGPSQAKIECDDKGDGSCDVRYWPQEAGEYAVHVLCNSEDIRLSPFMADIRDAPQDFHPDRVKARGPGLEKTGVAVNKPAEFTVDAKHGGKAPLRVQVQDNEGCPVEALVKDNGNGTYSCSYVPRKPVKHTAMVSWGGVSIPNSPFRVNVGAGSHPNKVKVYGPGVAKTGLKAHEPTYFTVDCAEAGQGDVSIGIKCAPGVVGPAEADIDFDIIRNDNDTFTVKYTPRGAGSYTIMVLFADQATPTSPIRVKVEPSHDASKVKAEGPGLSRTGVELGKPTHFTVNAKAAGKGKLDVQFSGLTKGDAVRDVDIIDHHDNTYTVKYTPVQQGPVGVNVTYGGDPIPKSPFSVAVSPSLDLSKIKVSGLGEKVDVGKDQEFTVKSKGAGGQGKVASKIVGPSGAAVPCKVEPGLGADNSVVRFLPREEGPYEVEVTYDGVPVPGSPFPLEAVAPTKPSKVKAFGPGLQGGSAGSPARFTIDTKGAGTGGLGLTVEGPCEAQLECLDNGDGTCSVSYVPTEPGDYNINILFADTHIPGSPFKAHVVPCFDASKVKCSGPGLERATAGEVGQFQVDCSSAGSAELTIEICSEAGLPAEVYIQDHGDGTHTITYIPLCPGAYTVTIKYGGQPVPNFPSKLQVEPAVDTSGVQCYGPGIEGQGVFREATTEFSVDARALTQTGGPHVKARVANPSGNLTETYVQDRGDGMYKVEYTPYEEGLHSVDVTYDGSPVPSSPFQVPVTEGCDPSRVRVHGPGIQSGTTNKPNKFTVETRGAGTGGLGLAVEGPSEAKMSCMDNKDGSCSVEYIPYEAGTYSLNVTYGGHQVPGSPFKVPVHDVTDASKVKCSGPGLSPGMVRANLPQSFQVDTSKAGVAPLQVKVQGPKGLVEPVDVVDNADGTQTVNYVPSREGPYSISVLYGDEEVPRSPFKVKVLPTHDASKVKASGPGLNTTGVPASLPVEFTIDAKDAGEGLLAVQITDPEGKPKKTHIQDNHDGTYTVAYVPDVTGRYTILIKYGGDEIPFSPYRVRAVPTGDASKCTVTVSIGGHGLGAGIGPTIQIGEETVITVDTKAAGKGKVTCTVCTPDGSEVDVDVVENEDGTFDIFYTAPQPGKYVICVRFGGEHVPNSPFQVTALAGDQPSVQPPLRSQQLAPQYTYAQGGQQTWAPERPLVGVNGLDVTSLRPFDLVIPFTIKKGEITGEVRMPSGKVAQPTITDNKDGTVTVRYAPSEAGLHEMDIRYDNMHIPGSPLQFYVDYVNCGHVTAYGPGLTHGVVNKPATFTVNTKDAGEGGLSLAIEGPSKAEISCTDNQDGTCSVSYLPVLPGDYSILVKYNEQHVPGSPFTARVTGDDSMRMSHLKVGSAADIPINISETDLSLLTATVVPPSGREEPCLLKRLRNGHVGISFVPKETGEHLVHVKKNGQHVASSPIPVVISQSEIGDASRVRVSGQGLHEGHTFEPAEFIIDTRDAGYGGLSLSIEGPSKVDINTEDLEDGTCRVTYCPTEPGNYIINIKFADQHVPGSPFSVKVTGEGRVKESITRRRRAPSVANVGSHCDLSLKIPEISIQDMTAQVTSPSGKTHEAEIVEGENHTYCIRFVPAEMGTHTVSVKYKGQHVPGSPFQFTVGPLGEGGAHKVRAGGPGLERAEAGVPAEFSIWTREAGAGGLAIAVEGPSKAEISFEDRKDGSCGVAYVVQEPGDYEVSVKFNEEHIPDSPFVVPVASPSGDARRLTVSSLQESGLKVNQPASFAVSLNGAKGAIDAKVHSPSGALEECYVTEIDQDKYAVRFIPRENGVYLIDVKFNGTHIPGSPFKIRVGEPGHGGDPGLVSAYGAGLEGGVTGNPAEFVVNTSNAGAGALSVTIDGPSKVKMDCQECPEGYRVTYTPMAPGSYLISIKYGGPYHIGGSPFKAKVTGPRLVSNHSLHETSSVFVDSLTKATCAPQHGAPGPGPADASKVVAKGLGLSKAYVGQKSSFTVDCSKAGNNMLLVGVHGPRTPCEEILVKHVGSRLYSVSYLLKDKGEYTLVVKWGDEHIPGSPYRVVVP
UniProt P46940: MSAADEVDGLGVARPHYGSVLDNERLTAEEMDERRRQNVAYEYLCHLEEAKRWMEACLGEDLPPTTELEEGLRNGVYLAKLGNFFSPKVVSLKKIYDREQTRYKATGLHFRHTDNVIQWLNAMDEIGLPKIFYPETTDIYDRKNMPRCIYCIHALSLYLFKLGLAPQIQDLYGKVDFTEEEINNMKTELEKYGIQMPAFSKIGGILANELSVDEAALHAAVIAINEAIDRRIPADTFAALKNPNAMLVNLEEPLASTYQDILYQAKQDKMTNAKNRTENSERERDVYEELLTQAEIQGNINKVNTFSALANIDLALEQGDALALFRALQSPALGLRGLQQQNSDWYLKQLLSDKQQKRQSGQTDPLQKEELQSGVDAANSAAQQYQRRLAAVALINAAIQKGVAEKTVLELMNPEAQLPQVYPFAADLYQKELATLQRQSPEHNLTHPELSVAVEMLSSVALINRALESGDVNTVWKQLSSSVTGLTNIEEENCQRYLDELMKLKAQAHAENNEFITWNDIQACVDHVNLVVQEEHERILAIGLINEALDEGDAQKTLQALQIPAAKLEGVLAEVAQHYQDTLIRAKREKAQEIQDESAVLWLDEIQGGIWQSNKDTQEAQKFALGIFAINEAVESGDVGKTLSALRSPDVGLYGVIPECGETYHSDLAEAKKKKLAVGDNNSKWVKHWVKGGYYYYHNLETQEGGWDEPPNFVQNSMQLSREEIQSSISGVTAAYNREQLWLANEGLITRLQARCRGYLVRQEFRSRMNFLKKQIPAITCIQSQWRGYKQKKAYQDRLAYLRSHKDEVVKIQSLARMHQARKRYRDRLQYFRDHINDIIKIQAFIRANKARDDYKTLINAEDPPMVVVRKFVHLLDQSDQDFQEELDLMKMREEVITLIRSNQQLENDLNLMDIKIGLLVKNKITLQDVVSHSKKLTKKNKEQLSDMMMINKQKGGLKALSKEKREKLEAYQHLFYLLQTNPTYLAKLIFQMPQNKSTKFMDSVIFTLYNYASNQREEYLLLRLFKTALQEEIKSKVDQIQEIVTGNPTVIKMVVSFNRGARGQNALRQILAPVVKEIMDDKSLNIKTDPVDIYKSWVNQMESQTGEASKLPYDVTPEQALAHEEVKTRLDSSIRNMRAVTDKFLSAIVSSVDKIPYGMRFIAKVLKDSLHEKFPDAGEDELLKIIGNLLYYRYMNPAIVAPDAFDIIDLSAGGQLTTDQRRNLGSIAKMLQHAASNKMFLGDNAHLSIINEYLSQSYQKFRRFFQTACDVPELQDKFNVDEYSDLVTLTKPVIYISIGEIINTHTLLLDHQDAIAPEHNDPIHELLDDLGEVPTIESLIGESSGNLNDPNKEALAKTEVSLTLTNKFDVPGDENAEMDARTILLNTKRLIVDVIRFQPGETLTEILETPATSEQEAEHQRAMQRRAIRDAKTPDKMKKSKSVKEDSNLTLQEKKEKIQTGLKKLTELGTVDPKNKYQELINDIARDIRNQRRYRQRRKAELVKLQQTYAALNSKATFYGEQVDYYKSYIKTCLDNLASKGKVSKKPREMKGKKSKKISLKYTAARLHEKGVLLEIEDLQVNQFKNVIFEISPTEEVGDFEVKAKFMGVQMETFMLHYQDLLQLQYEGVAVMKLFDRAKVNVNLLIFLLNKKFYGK

B1: RALA (protein, UniProt P11233 1-206)
chain: MAANKPKGQNSLALHKVIMVGSGGVGKSALTLQFMYDEFVEDYEPTKADSYRKKVVLDGEEVQIDILDTAGQEDYAAIRDNYFRSGEGFLCVFSITEMESFAATADFREQILRVKEDENVPFLLVGNKSDLEDKRQVSVEEAKNRAEQWNVNYVETSAKTRANVDKVFFDLMREIRARKMEDSKEKNGKKKRKSLAKRIRERCCIL

target: ASAP1 (Arf GTP-activating protein), endogenous (human (endogenous in SGC-7901)) (UniProt Q9ULH1); assay: affinity purification with mass spectrometry; immunoprecipitation with an antibody against ASAP1 from GC cells, label-free mass spectrometric analysis

| binding | Molecule |
| --- | --- |
| binds | CD55 (from UniProt P08174 35-353) |
| binds | FLNA (from UniProt P21333 1-2647) |
| binds | IQGAP1 (Ras GTPase-activating-like protein), endogenous (from UniProt P46940 1-1657) |
| binds | PLEC (from UniProt Q15149 1-4684) |
| binds | B1 |
